Literature values as cited in patent EP0568635B1, “IMPROVED GLYPHOSATE FORMULATIONS” (MONSANTO COMPANY, priority 1991, dated 1992).

Conditions: at 25°C; cited from earlier work

Compound: O=C(O)CNCP(=O)(O)O [glyphosate, N-phosphonomethylglycine]
- soluble in water: about 1.0 wt. %
